Laboratory results from publication PMC6321601 (Molecules, 2018).

Tested on: HepG-2 and L-O2 cell lines
Experiment: Therapeutic index, ratio of IC50 for L-O2 to IC50 for HepG-2
Format: cell-based, human
Details: IC50 (L-O2)/IC50 (HepG-2)

SMILES | TI (Therapeutic Index)
COc1cc(/C=C/C(=O)O[C@@H]2C[C@@]3(C)C4CC=C5C(C[C@H](O)C(=O)C5(C)C)[C@]4(C)C(=O)C[C@]3(C)C2[C@@](C)(O)C(=O)/C=C/C(C)(C)OC(C)=O)cc(OC)c1 (stereo partly drawn) [Compound 3q, (2S,9R,13R,14S,16R)-17-((R,E)-6-Acetoxy-2-hydroxy-6-methyl-3-oxohept-4-en-2-yl)-2-hydroxy-4,4,9,13,14-pentamethyl-3,11-dioxo-2,3,4,7,8,9,10,11,12,13,14,15,16,17-tetradecahydro-1H-cyclopenta[a]phenanthren-16-yl (E)-3-(3,5-dimethoxyphenyl)acrylate] | 1.36
CC(=O)OC(C)(C)C=CC(=O)C(C)(O)C1C(OC(=O)CCC(=O)NCCOc2no[n+]([O-])c2S(=O)(=O)c2ccccc2)CC2(C)C3CC=C4C(CC(O)C(=O)C4(C)C)C3(C)C(=O)CC12C [Compound 9a, 3-((l1-oxidanyl)(oxo)(phenyl)-l5-sulfanyl)-4-(2-(4-(((9R,13R,14S,16R)-17-((R,E)-6-acetoxy-2-hydroxy-6-methyl-3-oxohept-4-en-2-yl)-2-Hydroxy-4,4,9,13,14-pentamethyl-3,11-dioxo-2,3,4,7,8,9,10,11,12,13,14,15,16,17-tetradecahydro-1H-cyclopenta[a]phenanthren-16-yl)oxy)-4-oxobutanamido)ethoxy)-1,2,5-oxadiazole 2-oxide] | 1.5
CC(=O)OC(C)(C)/C=C/C(=O)[C@](C)(O)C1[C@H](OC(=O)CCC(=O)NCCCOc2no[n+]([O-])c2S(=O)(=O)c2ccccc2)C[C@@]2(C)C3CC=C4C(CC(O)C(=O)C4(C)C)[C@]3(C)C(=O)C[C@]12C (stereo partly drawn) [Compound 9b, 4-(3-(4-(((9R,13R,14S,16R)-17-((R,E)-6-Acetoxy-2-hydroxy-6-methyl-3-oxohept-4-en-2-yl)-2-hydroxy-4,4,9,13,14-pentamethyl-3,11-dioxo-2,3,4,7,8,9,10,11,12,13,14,15,16,17-tetradecahydro-1H-cyclopenta[a]phenanthren-16-yl)oxy)-4-oxobutanamido)propoxy)-3-(phenylsulfonyl)-1,2,5-oxadiazole 2-oxide] | 1.51
CC(=O)OC(C)(C)/C=C/C(=O)[C@](C)(O)C1[C@H](OC(=O)CCC(=O)N2CCN(CCOc3no[n+]([O-])c3S(=O)(=O)c3ccccc3)CC2)C[C@@]2(C)C3CC=C4C(CC(O)C(=O)C4(C)C)[C@]3(C)C(=O)C[C@]12C (stereo partly drawn) [Compound 9c, 4-(2-(4-(4-(((9R,13R,14S,16R)-17-((R,E)-6-Acetoxy-2-hydroxy-6-methyl-3-oxohept-4-en-2-yl)-2-hydroxy-4,4,9,13,14-pentamethyl-3,11-dioxo-2,3,4,7,8,9,10,11,12,13,14,15,16,17-tetradecahydro-1H-cyclopenta[a]phenanthren-16-yl)oxy)-4-oxobutanoyl)piperazin-1-yl)ethoxy)-3-(phenylsulfonyl)-1,2,5-oxadiazole 2-oxide] | 2.84
CC(=O)OC(C)(C)/C=C/C(=O)[C@](C)(O)C1[C@H](OC(=O)CCC(=O)OCCOc2no[n+]([O-])c2S(=O)(=O)c2ccccc2)C[C@@]2(C)C3CC=C4C(CC(O)C(=O)C4(C)C)[C@]3(C)C(=O)C[C@]12C (stereo partly drawn) [Compound 10a, 4-(2-((4-(((9R,13R,14S,16R)-17-((R,E)-6-Acetoxy-2-hydroxy-6-methyl-3-oxohept-4-en-2-yl)-2-hydroxy-4,4,9,13,14-pentamethyl-3,11-dioxo-2,3,4,7,8,9,10,11,12,13,14,15,16,17-tetradecahydro-1H-cyclopenta[a]phenanthren-16-yl)oxy)-4-oxobutanoyl)oxy)ethoxy)-3-(phenylsulfonyl)-1,2,5-oxadiazole 2-oxide] | 2.49
CC(=O)OC(C)(C)/C=C/C(=O)[C@](C)(O)C1[C@H](OC(=O)CCC(=O)OCCCOc2no[n+]([O-])c2S(=O)(=O)c2ccccc2)C[C@@]2(C)C3CC=C4C(CC(O)C(=O)C4(C)C)[C@]3(C)C(=O)C[C@]12C (stereo partly drawn) [Compound 10b, 4-(3-((4-(((9R,13R,14S,16R)-17-((R,E)-6-Acetoxy-2-hydroxy-6-methyl-3-oxohept-4-en-2-yl)-2-hydroxy-4,4,9,13,14-pentamethyl-3,11-dioxo-2,3,4,7,8,9,10,11,12,13,14,15,16,17-tetradecahydro-1H-cyclopenta[a]phenanthren-16-yl)oxy)-4-oxobutanoyl)oxy)propoxy)-3-(phenylsulfonyl)-1,2,5-oxadiazole 2-oxide] | 4.71
CC(=O)OC(C)(C)/C=C/C(=O)[C@](C)(O)C1[C@H](OC(=O)CCC(=O)OCCCCOc2no[n+]([O-])c2S(=O)(=O)c2ccccc2)C[C@@]2(C)C3CC=C4C(CC(O)C(=O)C4(C)C)[C@]3(C)C(=O)C[C@]12C (stereo partly drawn) [Compound 10c, 4-(4-((4-(((9R,13R,14S,16R)-17-((R,E)-6-Acetoxy-2-hydroxy-6-methyl-3-oxohept-4-en-2-yl)-2-hydroxy-4,4,9,13,14-pentamethyl-3,11-dioxo-2,3,4,7,8,9,10,11,12,13,14,15,16,17-tetradecahydro-1H-cyclopenta[a]phenanthren-16-yl)oxy)-4-oxobutanoyl)oxy)butoxy)-3-(phenylsulfonyl)-1,2,5-oxadiazole 2-oxide] | 4.03
CC(=O)OC(C)(C)/C=C/C(=O)[C@](C)(O)C1[C@H](OC(=O)CCC(=O)OCCCCCOc2no[n+]([O-])c2S(=O)(=O)c2ccccc2)C[C@@]2(C)C3CC=C4C(CC(O)C(=O)C4(C)C)[C@]3(C)C(=O)C[C@]12C (stereo partly drawn) [Compound 10d, 4-((5-((4-(((9R,13R,14S,16R)-17-((R,E)-6-Acetoxy-2-hydroxy-6-methyl-3-oxohept-4-en-2-yl)-2-hydroxy-4,4,9,13,14-pentamethyl-3,11-dioxo-2,3,4,7,8,9,10,11,12,13,14,15,16,17-tetradecahydro-1H-cyclopenta[a]phenanthren-16-yl)oxy)-4-oxobutanoyl)oxy)pentyl)oxy)-3-(phenylsulfonyl)-1,2,5-oxadiazole 2-oxide] | 4.1
CC(=O)OC(C)(C)/C=C/C(=O)[C@](C)(O)C1[C@H](OC(=O)CCC(=O)OCCCCCCOc2no[n+]([O-])c2S(=O)(=O)c2ccccc2)C[C@@]2(C)C3CC=C4C(CC(O)C(=O)C4(C)C)[C@]3(C)C(=O)C[C@]12C (stereo partly drawn) [Compound 10e, 4-((6-((4-(((9R,13R,14S,16R)-17-((R,E)-6-Acetoxy-2-hydroxy-6-methyl-3-oxohept-4-en-2-yl)-2-hydroxy-4,4,9,13,14-pentamethyl-3,11-dioxo-2,3,4,7,8,9,10,11,12,13,14,15,16,17-tetradecahydro-1H-cyclopenta[a]phenanthren-16-yl)oxy)-4-oxobutanoyl)oxy)hexyl)oxy)-3-(phenylsulfonyl)-1,2,5-oxadiazole 2-oxide] | 2.79
CC(=O)OC(C)(C)/C=C/C(=O)[C@](C)(O)C1[C@H](OC(=O)CCC(=O)OCCCCCCCOc2no[n+]([O-])c2S(=O)(=O)c2ccccc2)C[C@@]2(C)C3CC=C4C(CC(O)C(=O)C4(C)C)[C@]3(C)C(=O)C[C@]12C (stereo partly drawn) [Compound 10f, 4-((7-((4-(((9R,13R,14S,16R)-17-((R,E)-6-Acetoxy-2-hydroxy-6-methyl-3-oxohept-4-en-2-yl)-2-hydroxy-4,4,9,13,14-pentamethyl-3,11-dioxo-2,3,4,7,8,9,10,11,12,13,14,15,16,17-tetradecahydro-1H-cyclopenta[a]phenanthren-16-yl)oxy)-4-oxobutanoyl)oxy)heptyl)oxy)-3-(phenylsulfonyl)-1,2,5-oxadiazole 2-oxide] | 3.92
CC(=O)OC(C)(C)/C=C/C(=O)[C@](C)(O)C1[C@H](OC(=O)CCC(=O)OCCCCCCCCOc2no[n+]([O-])c2S(=O)(=O)c2ccccc2)C[C@@]2(C)C3CC=C4C(CC(O)C(=O)C4(C)C)[C@]3(C)C(=O)C[C@]12C (stereo partly drawn) [Compound 10g, 4-((8-((4-(((9R,13R,14S,16R)-17-((R,E)-6-Acetoxy-2-hydroxy-6-methyl-3-oxohept-4-en-2-yl)-2-hydroxy-4,4,9,13,14-pentamethyl-3,11-dioxo-2,3,4,7,8,9,10,11,12,13,14,15,16,17-tetradecahydro-1H-cyclopenta[a]phenanthren-16-yl)oxy)-4-oxobutanoyl)oxy)octyl)oxy)-3-(phenylsulfonyl)-1,2,5-oxadiazole 2-oxide] | 3.61
CC(=O)OC(C)(C)/C=C/C(=O)[C@](C)(O)C1[C@H](OC(=O)CCC(=O)OCCCCCCCCCOc2no[n+]([O-])c2S(=O)(=O)c2ccccc2)C[C@@]2(C)C3CC=C4C(CC(O)C(=O)C4(C)C)[C@]3(C)C(=O)C[C@]12C (stereo partly drawn) [Compound 10h, 4-((9-((4-(((9R,13R,14S,16R)-17-((R,E)-6-Acetoxy-2-hydroxy-6-methyl-3-oxohept-4-en-2-yl)-2-hydroxy-4,4,9,13,14-pentamethyl-3,11-dioxo-2,3,4,7,8,9,10,11,12,13,14,15,16,17-tetradecahydro-1H-cyclopenta[a]phenanthren-16-yl)oxy)-4-oxobutanoyl)oxy)nonyl)oxy)-3-(phenylsulfonyl)-1,2,5-oxadiazole 2-oxide] | 1.02
CC(=O)OC(C)(C)/C=C/C(=O)[C@](C)(O)C1[C@H](OC(=O)CCC(=O)OCCCCCCCCCCOc2no[n+]([O-])c2S(=O)(=O)c2ccccc2)C[C@@]2(C)C3CC=C4C(CC(O)C(=O)C4(C)C)[C@]3(C)C(=O)C[C@]12C (stereo partly drawn) [Compound 10i, 4-((10-((4-(((9R,13R,14S,16R)-17-((R,E)-6-Acetoxy-2-hydroxy-6-methyl-3-oxohept-4-en-2-yl)-2-hydroxy-4,4,9,13,14-pentamethyl-3,11-dioxo-2,3,4,7,8,9,10,11,12,13,14,15,16,17-tetradecahydro-1H-cyclopenta[a]phenanthren-16-yl)oxy)-4-oxobutanoyl)oxy)decyl)oxy)-3-(phenylsulfonyl)-1,2,5-oxadiazole 2-oxide] | 0.47
CC(=O)OC(C)(C)/C=C/C(=O)[C@](C)(O)C1[C@H](OC(=O)CCC(=O)OCCCCCCCCCCCOc2no[n+]([O-])c2S(=O)(=O)c2ccccc2)C[C@@]2(C)C3CC=C4C(CC(O)C(=O)C4(C)C)[C@]3(C)C(=O)C[C@]12C (stereo partly drawn) [Compound 10j, 4-((11-((4-(((9R,13R,14S,16R)-17-((R,E)-6-Acetoxy-2-hydroxy-6-methyl-3-oxohept-4-en-2-yl)-2-hydroxy-4,4,9,13,14-pentamethyl-3,11-dioxo-2,3,4,7,8,9,10,11,12,13,14,15,16,17-tetradecahydro-1H-cyclopenta[a]phenanthren-16-yl)oxy)-4-oxobutanoyl)oxy)undecyl)oxy)-3-(phenylsulfonyl)-1,2,5-oxadiazole 2-oxide] | 0.65
